Protein sequences, listed by entry. Tags and fused reporters are not part of them.
UniProt P53566, whole entry: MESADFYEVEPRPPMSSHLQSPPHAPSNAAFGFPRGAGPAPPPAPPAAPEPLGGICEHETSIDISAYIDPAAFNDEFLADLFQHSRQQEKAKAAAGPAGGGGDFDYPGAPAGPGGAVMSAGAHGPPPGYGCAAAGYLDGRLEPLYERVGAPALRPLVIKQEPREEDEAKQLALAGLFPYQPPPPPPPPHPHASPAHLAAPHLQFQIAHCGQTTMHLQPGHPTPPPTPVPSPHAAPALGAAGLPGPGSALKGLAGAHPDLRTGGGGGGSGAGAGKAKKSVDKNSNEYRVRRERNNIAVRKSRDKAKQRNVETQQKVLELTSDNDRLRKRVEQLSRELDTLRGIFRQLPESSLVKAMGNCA

In PMC8528721:

Biological target: His-CEBPα (UniProt P53566)
Assay: EMSA
Settings: increasing GST-Hop2, dose-dependent loss of the CEBPα-DNA complex; EMSA: 5 pmol probe, room temperature, 10 min; salt and pH not given (refs 36, 55); recombinant protein; protein details: His; label: 32P

Does “GATCTGCAGATTGCGCAATCTGCA / GATCTGCAGATTGCGCAATCTGCA [CEBP consensus palindrome probe]” bind?
Result: binds more weakly

For at least one entry, the source does not settle the construct or the ends of the probe. The comparison behind a weaker result is the experiment's own reference, which may not be listed here.
